# Assay results from PMC6923382, “Small molecules that inhibit TNF signalling by stabilising an asymmetric form of the trimer” (Nature Communications, 2019).
# Where “and” joins values, the source holds several entries; their conditions need not be identical. Identical values can stand only once. The source gives many values for each of these; only a part stands here.
# Assay: Blood exposure of UCB-9260 in the mouse models
# Format: in vivo
# Details: 150mg/kg; CAIA model; individual mice
structure (smiles),measurement,value
Cc1ccc(C)c(Cn2c(C(O)c3ccncc3)nc3ccc(-c4cnn(C)c4)cc32)c1 (stereo not shown) [UCB-9260],"Free UCB-9260, 1 hour",320.5 nM and 69.4 nM and 438.7 nM
same,"Free UCB-9260, 6 hour",827.4 nM and 105.3 nM and 29.5 nM
same,"Total UCB-9260, 1 hour",2.8906 µM and 18.2799 µM
same,"Total UCB-9260, 6 hour",4388.6 nM and 1229.9 nM
